{"source": "patent US20230069590A1", "about": "“CONCENTRATED SODIUM VALPROATE FOR RAPID DELIVERY” (priority 2020, published 2023)", "test_system": "polytrauma, hemorrhage and TBI", "assay": "Arterial blood gas (Example 2)", "type": "in vivo, swine", "settings": "VPA 150 mg/kg over 3 h", "key": {"[1]": {"settings": "IO group, End (end of experiment)"}, "[2]": {"settings": "IO group, Shock (end of hemorrhage/start of shock)"}, "[3]": {"settings": "IO group, Treatment (end of shock/start of NS resuscitation ± VPA)"}, "[4]": {"settings": "IO group, pRBC (start of blood transfusion)"}, "[5]": {"settings": "IV group, End (end of experiment)"}, "[6]": {"settings": "IV group, Shock (end of hemorrhage/start of shock)"}, "[7]": {"settings": "IV group, Treatment (end of shock/start of NS resuscitation ± VPA)"}, "[8]": {"settings": "IV group, pRBC (start of blood transfusion)"}}, "data": [{"compound": "CCCC(CCC)C(=O)O", "note": "[VPA, valproic acid]", "values": [{"measurement": "HCO3", "setting": "[1]", "result": 24.3, "unit": "mM"}, {"measurement": "Hgb", "setting": "[1]", "result": 14.3, "unit": "g/dL"}, {"measurement": "K", "setting": "[1]", "result": 4.6, "unit": "mM"}, {"measurement": "Lactate", "setting": "[1]", "result": 3.5, "unit": "mmol/L"}, {"measurement": "pH", "setting": "[1]", "result": 7.41}, {"measurement": "HCO3", "setting": "[2]", "result": 27.4, "unit": "mM"}, {"measurement": "Hgb", "setting": "[2]", "result": 10.7, "unit": "g/dL"}, {"measurement": "K", "setting": "[2]", "result": 4.3, "unit": "mM"}, {"measurement": "Lactate", "setting": "[2]", "result": 2.8, "unit": "mmol/L"}, {"measurement": "pH", "setting": "[2]", "result": 7.48}, {"measurement": "HCO3", "setting": "[3]", "result": 22.9, "unit": "mM"}, {"measurement": "Hgb", "setting": "[3]", "result": 10.0, "unit": "g/dL"}, {"measurement": "K", "setting": "[3]", "result": 4.3, "unit": "mM"}, {"measurement": "Lactate", "setting": "[3]", "result": 8.1, "unit": "mmol/L"}, {"measurement": "pH", "setting": "[3]", "result": 7.37}, {"measurement": "HCO3", "setting": "[4]", "result": 22.4, "unit": "mM"}, {"measurement": "Hgb", "setting": "[4]", "result": 9.0, "unit": "g/dL"}, {"measurement": "K", "setting": "[4]", "result": 4.9, "unit": "mM"}, {"measurement": "Lactate", "setting": "[4]", "result": 6.0, "unit": "mmol/L"}, {"measurement": "pH", "setting": "[4]", "result": 7.39}, {"measurement": "HCO3", "setting": "[5]", "result": 22.9, "unit": "mM"}, {"measurement": "Hgb", "setting": "[5]", "result": 13.3, "unit": "g/dL"}, {"measurement": "K", "setting": "[5]", "result": 5.2, "unit": "mM"}, {"measurement": "Lactate", "setting": "[5]", "result": 4.1, "unit": "mmol/L"}, {"measurement": "pH", "setting": "[5]", "result": 7.44}, {"measurement": "HCO3", "setting": "[6]", "result": 22.2, "unit": "mM"}, {"measurement": "Hgb", "setting": "[6]", "result": 11.4, "unit": "g/dL"}, {"measurement": "K", "setting": "[6]", "result": 4.6, "unit": "mM"}, {"measurement": "Lactate", "setting": "[6]", "result": 3.6, "unit": "mmol/L"}, {"measurement": "pH", "setting": "[6]", "result": 7.46}, {"measurement": "HCO3", "setting": "[7]", "result": 17.5, "unit": "mM"}, {"measurement": "Hgb", "setting": "[7]", "result": 9.9, "unit": "g/dL"}, {"measurement": "K", "setting": "[7]", "result": 4.6, "unit": "mM"}, {"measurement": "Lactate", "setting": "[7]", "result": 9.1, "unit": "mmol/L"}, {"measurement": "pH", "setting": "[7]", "result": 7.30}, {"measurement": "HCO3", "setting": "[8]", "result": 18.7, "unit": "mM"}, {"measurement": "Hgb", "setting": "[8]", "result": 8.7, "unit": "g/dL"}, {"measurement": "K", "setting": "[8]", "result": 5.1, "unit": "mM"}, {"measurement": "Lactate", "setting": "[8]", "result": 8.0, "unit": "mmol/L"}, {"measurement": "pH", "setting": "[8]", "result": 7.39}]}]}
